# The list is a part of this screen's results and no random one: it gathers tests that were run many times, whatever their T/C, doses with no T/C, and many T/C values between a quarter and a half above the control. Other doses and runs of a compound stand elsewhere. T/C is the treated group as % of the vehicle group. Some entries give survivors of the animals treated and no T/C: the source holds a T/C of zero for them, seemingly a mark for toxic or unscored doses. Some doses without a T/C left all or most animals alive at the check, yet need not have been tolerated: survival well below the control is almost never listed, so the zero probably covers shortened survival too. Counts of survivors are from the toxicity check (mostly the fifth day) where no day follows; animals may have died later. Schedule codes are those of the source, taken here to give the interval after Q, in days (D) or hours (H), and the number of doses after X. Some schedule codes hold Z or #, which are not explained here. Some doses were run more than once; their values stand side by side, smallest first. Where survival is the endpoint, this PubChem deposit counts one and a half times the control or more as active, and values a quarter to a half above the control carry no call in these data; other NCI protocols may use other cut-offs.
# Test system: L1210 leukemia ip in BDF1 mice, survival T/C
# Assay: NCI In Vivo Anticancer Drug Screen. Data for tumor model L1210 Leukemia (intraperitoneal) in B6D2F1 (BDF1) mice
# Conditions: T/C endpoint: mean survival time, higher T/C = longer survival
# [1] = dose: 400.0 mg/kg/injection, schedule: Q01DX001 (ip), vehicle: saline
# [2] = dose: 100.0 mg/kg/injection, schedule: Q01DX009 (ip), vehicle: saline
# [3] = dose: 200.0 mg/kg/injection, schedule: Q01DX009 (ip), vehicle: saline
# [4] = dose: 400.0 mg/kg/injection, schedule: Q01DX009 (ip), vehicle: saline
# [5] = dose: 400.0 mg/kg/injection, schedule: Q01DX009 (ip), vehicle: Klucel (hydroxypropylcellulose) (HPC)
# [6] = dose: 400.0 mg/kg/injection, schedule: Q04DX003 (ip), vehicle: saline with Tween-80
# [7] = dose: 200.0 mg/kg/injection, schedule: Q01DX001 (ip), vehicle: saline
# [8] = dose: 100.0 mg/kg/injection, schedule: Q01DX009 (ip), vehicle: Klucel (hydroxypropylcellulose) (HPC)
# [9] = dose: 400.0 mg/kg/injection, schedule: Q04DX002 (ip), vehicle: Klucel (hydroxypropylcellulose) (HPC)
smiles,measurement,setting,value
CCOC(=O)/C=C(\C)N(C(=O)N(CCCl)N=O)c1ccccc1,T/C,"dose: 0.25 mg/kg/injection, schedule: Q01DX009 (ip), vehicle: Klucel (hydroxypropylcellulose) (HPC)",137 % of control
same,T/C,"dose: 0.7 mg/kg/injection, schedule: Q01DX009 (ip), vehicle: carboxymethylcellulose (CMC)",132 % of control
same,T/C,"dose: 1.5 mg/kg/injection, schedule: Q01DX009 (ip), vehicle: carboxymethylcellulose (CMC)",143 % of control
same,T/C,"dose: 3.0 mg/kg/injection, schedule: Q01DX009 (ip), vehicle: carboxymethylcellulose (CMC)",147 % of control
same,T/C,"dose: 4.0 mg/kg/injection, schedule: Q01DX001 (ip), vehicle: carboxymethylcellulose (CMC)",141 % of control
same,T/C,"dose: 8.0 mg/kg/injection, schedule: Q01DX001 (ip), vehicle: carboxymethylcellulose (CMC)",143 % of control
same,T/C,"dose: 13.0 mg/kg/injection, schedule: Q01DX001 (ip), vehicle: carboxymethylcellulose (CMC)",134 % of control
same,T/C,"dose: 20.0 mg/kg/injection, schedule: Q01DX001 (ip), vehicle: carboxymethylcellulose (CMC)",146 % of control
same,survivor count,"dose: 20.0 mg/kg/injection, schedule: Q01DX009 (ip), vehicle: Klucel (hydroxypropylcellulose) (HPC)",5 of 6
same,survivor count,"dose: 45.0 mg/kg/injection, schedule: Q01DX009 (ip), vehicle: Klucel (hydroxypropylcellulose) (HPC)",6 of 6
same,survivor count,"dose: 75.0 mg/kg/injection, schedule: Q01DX001 (ip), vehicle: carboxymethylcellulose (CMC)",3 of 6
same,survivor count,"dose: 150.0 mg/kg/injection, schedule: Q01DX001 (ip), vehicle: carboxymethylcellulose (CMC)",0 of 6
same,survivor count,"dose: 300.0 mg/kg/injection, schedule: Q01DX001 (ip), vehicle: carboxymethylcellulose (CMC)",0 of 6
CN1CCC(O)(c2ccccc2)C(C(=O)c2ccccc2)C1 (centres undefined),survivor count,[1],1 of 6
COc1cc2cc[n+]3c(C)c4cc5c(cc4cc3c2cc1OC)OCO5 (tested in a mixture with another compound),T/C,"dose: 10.0 mg/kg/injection, schedule: Q01DX009 (ip), vehicle: saline",133 % of control
same,survivor count,[2],6 of 6
same,survivor count,[3],5 of 6
CCCC[As](=O)(O)CC(C)C,survivor count,"dose: 25.0 mg/kg/injection, schedule: Q01DX009 (ip), vehicle: saline",0 of 3
same,survivor count,"dose: 50.0 mg/kg/injection, schedule: Q01DX009 (ip), vehicle: saline",0 of 3
same,survivor count,[2],0 of 3 and 0 of 6
same,survivor count,[3],0 of 6
same,survivor count,[4],0 of 6
CCN(CC)CCNC(=O)c1ccc(N=Cc2cc(Cl)cc(Cl)c2O)cc1,survivor count,[5],1 of 6
ClC12CCC(Cl)(CC1)CC2,survivor count,"dose: 150.0 mg/kg/injection, schedule: Q01DX001 (ip), vehicle: acetone",3 of 6
same,survivor count,"dose: 300.0 mg/kg/injection, schedule: Q01DX001 (ip), vehicle: acetone",0 of 6
CCC/C(=N/NC(=O)C1CCCO1)c1ccccc1 (centres undefined),survivor count,"dose: 200.0 mg/kg/injection, schedule: Q01DX009 (ip), vehicle: Klucel (hydroxypropylcellulose) (HPC)",0 of 6
same,survivor count,[5],0 of 6
N#C/C(=N\N=Nc1ccccc1)c1ccccc1,survivor count,"dose: 3.0 mg/kg/injection, schedule: Q01DX009 (ip), vehicle: DMSO",5 of 6
same,survivor count,"dose: 25.0 mg/kg/injection, schedule: Q01DX009 (ip), vehicle: DMSO",5 of 6
same,survivor count,"dose: 50.0 mg/kg/injection, schedule: Q01DX009 (ip), vehicle: DMSO",1 of 6
NCc1cc([N+](=O)[O-])ccc1Cl,survivor count,[6],4 of 6
Cc1ccc(C(c2ccccc2)c2ccccc2)cc1C,survivor count,[7],6 of 6
CCOP(=S)(OCC)SC(C)C,survivor count,[6],0 of 6
CCN(CC)CCCC(C)Nc1cc(C)nc(/N=C(\N)Nc2ccc(Cl)c(Cl)c2)n1 (centres undefined),survivor count,[8],0 of 6
same,survivor count,"dose: 200.0 mg/kg/injection, schedule: Q01DX001 (ip), vehicle: Klucel (hydroxypropylcellulose) (HPC)",3 of 6
same,survivor count,"dose: 400.0 mg/kg/injection, schedule: Q01DX001 (ip), vehicle: Klucel (hydroxypropylcellulose) (HPC)",0 of 6
O=S(=O)(O)c1ccc(-c2ccc(S(=O)(=O)O)cc2)cc1,survivor count,"dose: 300.0 mg/kg/injection, schedule: Q01DX Z (ip), vehicle: methylcellulose (MC)",4 of 6
O=C(O)c1ccc2ccc3cccnc3c2n1,survivor count,[6],1 of 4
O=C1CC(c2ccccc2)C(c2ccccc2)C(=O)N1 (centres undefined),survivor count,"dose: 300.0 mg/kg/injection, schedule: Q01DX001 (ip), vehicle: saline",1 of 6
C=CCOCC(O)CN(C)CCCCCCCCCCCC (centres undefined),survivor count,"dose: 50.0 mg/kg/injection, schedule: Q04DX003 (ip), vehicle: Klucel (hydroxypropylcellulose) (HPC)",0 of 6
same,survivor count,[8],0 of 6
same,survivor count,"dose: 100.0 mg/kg/injection, schedule: Q04DX003 (ip), vehicle: Klucel (hydroxypropylcellulose) (HPC)",0 of 6
same,survivor count,"dose: 200.0 mg/kg/injection, schedule: Q04DX003 (ip), vehicle: Klucel (hydroxypropylcellulose) (HPC)",0 of 6 and 6 of 6
same,survivor count,"dose: 400.0 mg/kg/injection, schedule: Q04DX003 (ip), vehicle: Klucel (hydroxypropylcellulose) (HPC)",0 of 6
O=S(=O)(Nc1ccccn1)c1ccccc1,survivor count,[8],6 of 6
c1ccc(N=NNc2ccccc2)cc1,survivor count,"dose: 50.0 mg/kg/injection, schedule: Q01DX009 (ip), vehicle: saline with Tween-80",5 of 6
same,survivor count,"dose: 100.0 mg/kg/injection, schedule: Q01DX009 (ip), vehicle: saline with Tween-80",3 of 6
same,survivor count,"dose: 200.0 mg/kg/injection, schedule: Q01DX009 (ip), vehicle: saline with Tween-80",3 of 6
CC(=O)Nc1cccc(N)c1,survivor count,[9],1 of 3
COc1cc(C(=O)NC(=S)NCc2ccncc2)cc(OC)c1OC,survivor count,[9],0 of 3
Cc1ccc(C)c(NS(=O)(=O)c2cc(Cl)c(Cl)cc2Cl)c1,survivor count,[5],3 of 6
c1cc2c(c(OCC3=NCCN3)c1)CCCC2,survivor count,"dose: 200.0 mg/kg/injection, schedule: Q04DX002 (ip), vehicle: saline",0 of 3
same,survivor count,"dose: 400.0 mg/kg/injection, schedule: Q04DX002 (ip), vehicle: saline",0 of 3
Clc1nc(Sc2ccc(Br)cc2)c(Cl)c(Sc2ccc(Br)cc2)n1,survivor count,"dose: 125.0 mg/kg/injection, schedule: Q01DX001 (ip), vehicle: Klucel (hydroxypropylcellulose) (HPC)",6 of 6
Nc1c(S(=O)(=O)O)cc(Nc2cccc(CO)c2)c2c1C(=O)c1ccccc1C2=O,survivor count,[1],1 of 6
C(=NCCN1CCOCC1)=NC1CCCCC1,survivor count,"dose: 100.0 mg/kg/injection, schedule: Q04DX003 (ip), vehicle: saline with Tween-80",1 of 6
same,survivor count,"dose: 200.0 mg/kg/injection, schedule: Q04DX003 (ip), vehicle: saline with Tween-80",0 of 6
same,survivor count,[6],0 of 6
C(CC1CCNCC1)CC1CCNCC1 (tested in a mixture with another compound),survivor count,[7],1 of 6
same,survivor count,[1],0 of 6
CC1=Nc2ccccc2NC(C)C1C (centres undefined),survivor count,[3],2 of 6
same,survivor count,[4],0 of 6
Nc1nc2nc[nH]c2c(Cl)c1Br,survivor count,[9],0 of 3
Clc1ccc(NC(Nc2ccc(Cl)c(Cl)c2)C(Cl)(Cl)Cl)cc1Cl,survivor count,[6],6 of 6
